Test results reported in the supplement of paper PMC4604168 (melanoma cell lines).
This is one part of the list. Single values are uncertain, as repeats are few or missing.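 Cells were imaged in 1,536-well plates, and nuclei stained with an antibody against cleaved PARP were counted against all DNA-stained nuclei to give the apoptosis fraction. Screening doses were chosen to leave most cells alive, and resting and induced cleaved-PARP levels differ strongly between cell lines.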

Key:
Experiment in all cases: cleaved PARP positive nuclei fraction relative to DMSO control; melanoma cells; higher = more apoptosis
Details in all cases: library dose: low library concentration; 72 h
WM115 = tested on: WM115
WM1716 = tested on: WM1716
WM1745 = tested on: WM1745
WM3526 = tested on: WM3526
WM3619 = tested on: WM3619
WM451Lu = tested on: WM451Lu

Compound | cleaved PARP positive nuclei fraction (WM115) [%] | cleaved PARP positive nuclei fraction (WM1716) [%] | cleaved PARP positive nuclei fraction (WM1745) [%] | cleaved PARP positive nuclei fraction (WM3526) [%] | cleaved PARP positive nuclei fraction (WM3619) [%] | cleaved PARP positive nuclei fraction (WM451Lu) [%]
O=C(CCCCCCC(=O)Nc1ccccc1)NO [vorinostat] + CN(NC(=O)CC(=O)NN(C)C(=S)c1ccccc1)C(=S)c1ccccc1 [STA4783] (first compound 0.08 µM, partner dose 0.006 µM) | 69.4 | 367 | 353 | 77.8 | 109 | 591
Cc1nc(Nc2ncc(C(=O)Nc3c(C)cccc3Cl)s2)cc(N2CCN(CCO)CC2)n1 [dasatanib] + O=S(=O)(c1ccccc1)N(CC(F)(F)F)c1ccc(C(O)(C(F)(F)F)C(F)(F)F)cc1 [T0901317] (first compound 0.004 µM, partner dose 1.4 µM) | 248 | 106 | 189 | 116 | 87 | 149
Nc1cccc2c1CN(C1CCC(=O)NC1=O)C2=O (stereo unspecified) [lenalidomide] + O=C(Nc1cccc(Cl)c1)Nc1ncc(CCNc2ncnc3ccsc23)s1 [SNS314] (first compound 1 µM, partner dose 0.0008 µM) | 157 | 115 | 102 | 69.5 | 99.9 | 116
Cc1nc(Nc2ncc(C(=O)Nc3c(C)cccc3Cl)s2)cc(N2CCN(CCO)CC2)n1 [dasatanib] + COc1ccc2c(c1)CCC1C2CCC2(C)C(NCCCCCCN3C(=O)C=CC3=O)CCC12 [U73122] (first compound 0.004 µM, partner dose 0.4 µM) | 279 | 138 | 160 | 369 | 102 | 49.4
COCC[n+]1c2c(n(Cc3cnccn3)c1C)C(=O)c1ccccc1C2=O + Cc1cc(N2CCOCC2)cc2[nH]c(-c3c(NC[C@@H](O)c4cccc(Cl)c4)cc[nH]c3=O)nc12 [BMS536924] (first compound 0.0004 µM, partner dose 0.2 µM) | 269 | 32.3 | 120 | 71.3 | 96.7 | 184
Cn1nnc2c(C(N)=O)ncn2c1=O [temozolomide] + COc1cc(Nc2ncc(F)c(Nc3ccc4c(n3)NC(=O)C(C)(C)O4)n2)cc(OC)c1OC [Tamatinib] (first compound 2 µM, partner dose 0.4 µM) | 126 | 180 | 124 | 39.2 | 228 | 101
Cc1nc(Nc2ncc(C(=O)Nc3c(C)cccc3Cl)s2)cc(N2CCN(CCO)CC2)n1 [dasatanib] + C[C@]1(c2nc3c(C(N)=O)cccc3[nH]2)CCCN1 [Veliparib] (first compound 0.004 µM, partner dose 1.4 µM) | 91 | 291 | 156 | 74.8 | 102 | 132
Cn1nnc2c(C(N)=O)ncn2c1=O [temozolomide] + COc1cc2c(Oc3ccc4[nH]c(C)cc4c3F)ncnc2cc1OCCCN1CCCC1 [cediranib] (first compound 2 µM, partner dose 0.4 µM) | 107 | 141 | 99.5 | 63.2 | 95 | 224
CC1(C)NC(=O)N(c2ccc([N+](=O)[O-])c(C(F)(F)F)c2)C1=O [nilutamide] + O=S(=O)(c1ccccc1)N(CC(F)(F)F)c1ccc(C(O)(C(F)(F)F)C(F)(F)F)cc1 [T0901317] (first compound 1 µM, partner dose 1.4 µM) | 215 | 112 | 130 | 87.6 | 80.3 | 115
Cc1nc(Nc2ncc(C(=O)Nc3c(C)cccc3Cl)s2)cc(N2CCN(CCO)CC2)n1 [dasatanib] + O=c1cc(-c2cccc3c2Sc2ccccc2S3)oc(N2CCOCC2)c1 [KU55933] (first compound 0.004 µM, partner dose 1 µM) | 119 | 172 | 134 | 90.4 | 99.2 | 114
Cn1c(Nc2ccc(C(F)(F)F)cc2)nc2cc(Oc3ccnc(-c4ncc(C(F)(F)F)[nH]4)c3)ccc21 + Cn1cncc1[C@@](N)(c1ccc(Cl)cc1)c1ccc2c(c1)c(-c1cccc(Cl)c1)cc(=O)n2C [tipifarnib] (first compound 0.08 µM, partner dose 0.01 µM) | 362 | 207 | 109 | 370 | 173 | 128
Cn1cncc1[C@@](N)(c1ccc(Cl)cc1)c1ccc2c(c1)c(-c1cccc(Cl)c1)cc(=O)n2C [tipifarnib] + CC(C)CCN1c2nc(Nc3cc(F)c(O)c(F)c3)ncc2N(C)C(=O)C1C [BID1870] (first compound 0.01 µM, partner dose 0.2 µM) | 171 | 74.4 | 108 | 154 | 96 | 62.7
Clc1ccc(Nc2nnc(Cc3ccncc3)c3ccccc23)cc1 [vatalanib] + CCCCCCCCCCCC1=C(O)C(=O)C=C(O)C1=O [Embelin] (first compound 2 µM, partner dose 1.2 µM) | 156 | 95.9 | 102 | 70.4 | 79.3 | 77.1
Cc1cc(N2CCOCC2)cc2[nH]c(-c3c(NC[C@@H](O)c4cccc(Cl)c4)cc[nH]c3=O)nc12 + NCC(=O)Nc1ccc(-n2nc(C(F)(F)F)cc2-c2ccc3c(ccc4ccccc43)c2)cc1 [OSU03012] (first compound 0.2 µM, partner dose 1 µM) | 227 | 100 | 113 | 105 | 93.6 | 173
C[C@]1(c2nc3c(C(N)=O)cccc3[nH]2)CCCN1 [Veliparib] + c1cc(-c2cnn3cc(-c4ccc(OCCN5CCCCC5)cc4)cnc23)ccn1 [Dorsomorphin] (first compound 1.4 µM, partner dose 0.4 µM) | 207 | 112 | 120 | 144 | 80.9 | 32.1
Cn1cncc1[C@@](N)(c1ccc(Cl)cc1)c1ccc2c(c1)c(-c1cccc(Cl)c1)cc(=O)n2C [tipifarnib] + NCC(=O)Nc1ccc(-n2nc(C(F)(F)F)cc2-c2ccc3c(ccc4ccccc43)c2)cc1 [OSU03012] (first compound 0.01 µM, partner dose 1 µM) | 138 | 130 | 96.9 | 109 | 84.4 | 110
Cn1c(Nc2ccc(C(F)(F)F)cc2)nc2cc(Oc3ccnc(-c4ncc(C(F)(F)F)[nH]4)c3)ccc21 + C[C@@H]1CCN(C(=O)CC#N)C[C@@H]1N(C)c1ncnc2[nH]ccc12 [CP690550] (first compound 0.08 µM, partner dose 1 µM) | 77.1 | 133 | 132 | 193 | 144 | 105
CO[C@@H]1[C@H](N(C)C(=O)c2ccccc2)C[C@H]2O[C@]1(C)n1c3ccccc3c3c4c(c5c6ccccc6n2c5c31)C(=O)NC4 [Midostaurin] + CC(C)(C)c1cnc(CSc2cnc(NC(=O)C3CCNCC3)s2)o1 [SNS-032] (first compound 0.08 µM, partner dose 0.01 µM) | 94.1 | 143 | 110 | 52.9 | 101 | 91.2
C=CCn1c(=O)c2cnc(Nc3ccc(N4CCN(C)CC4)cc3)nc2n1-c1cccc(C(C)(C)O)n1 + CN(C)S(=O)(=O)c1ccc2c(c1)/C(=C/c1cc3c([nH]1)CCCC3)C(=O)N2 [SU6656] (first compound 0.02 µM, partner dose 0.4 µM) | 296 | 21.3 | 105 | 191 | 121 | 372
Clc1ccc(Nc2nnc(Cc3ccncc3)c3ccccc23)cc1 [vatalanib] + C#Cc1cccc(Nc2ncnc3cc(OCCOC)c(OCCOC)cc23)c1 [erlotinib] (first compound 2 µM, partner dose 0.8 µM) | 188 | 46.7 | 121 | 89 | 103 | 47.4
Cn1c(Nc2ccc(C(F)(F)F)cc2)nc2cc(Oc3ccnc(-c4ncc(C(F)(F)F)[nH]4)c3)ccc21 + CN(C)S(=O)(=O)c1ccc2c(c1)/C(=C/c1cc3c([nH]1)CCCC3)C(=O)N2 [SU6656] (first compound 0.08 µM, partner dose 0.4 µM) | 1150 | 213 | 144 | 121 | 143 | 75.2
C[C@]1(c2nc3c(C(N)=O)cccc3[nH]2)CCCN1 [Veliparib] + CN(C)S(=O)(=O)c1ccc2c(c1)/C(=C/c1cc3c([nH]1)CCCC3)C(=O)N2 [SU6656] (first compound 1.4 µM, partner dose 0.4 µM) | 341 | 57.2 | 95.3 | 56.3 | 79.7 | 262
O=C(CCCCCCC(=O)Nc1ccccc1)NO [vorinostat] + Cc1cc([N+](=O)[O-])ccc1NS(=O)(=O)c1cc(Cl)ccc1Cl [FH535] (first compound 0.08 µM, partner dose 1 µM) | 101 | 82 | 99.9 | 73 | 94.5 | 122
OCCn1cc(-c2cnc3nnn(Cc4ccc5ncccc5c4)c3n2)cn1 + O=C(O)c1ccc(-c2c[nH]c3ncc(-c4ccccc4)cc23)cc1C1CCCC1 [GSK650394] (first compound 1 µM, partner dose 0.16 µM) | 28.6 | 65.8 | 92.3 | 162 | 78.2 | 30.1
Cc1nc(Nc2ncc(C(=O)Nc3c(C)cccc3Cl)s2)cc(N2CCN(CCO)CC2)n1 [dasatanib] + CC1(C)NC(=O)N(c2ccc([N+](=O)[O-])c(C(F)(F)F)c2)C1=O [nilutamide] (first compound 0.004 µM, partner dose 1 µM) | 120 | 288 | 127 | 24.9 | 98.1 | 60
Cn1c(Nc2ccc(C(F)(F)F)cc2)nc2cc(Oc3ccnc(-c4ncc(C(F)(F)F)[nH]4)c3)ccc21 + Cc1ccc(NC(=O)c2cccc(N(C)C)c2)cc1NC(=O)c1ccc(O)cc1 [ZM336372] (first compound 0.08 µM, partner dose 2 µM) | 1040 | 301 | 141 | 263 | 115 | 128

An excerpt of these results, with each value named:
COCC[n+]1c2c(n(Cc3cnccn3)c1C)C(=O)c1ccccc1C2=O + Cc1cc(N2CCOCC2)cc2[nH]c(-c3c(NC[C@@H](O)c4cccc(Cl)c4)cc[nH]c3=O)nc12 [BMS536924] (first compound 0.0004 µM, partner dose 0.2 µM)
  cleaved PARP positive nuclei fraction (WM115) [%]: 269; cleaved PARP positive nuclei fraction (WM1716) [%]: 32.3; cleaved PARP positive nuclei fraction (WM1745) [%]: 120; cleaved PARP positive nuclei fraction (WM3526) [%]: 71.3; cleaved PARP positive nuclei fraction (WM3619) [%]: 96.7; cleaved PARP positive nuclei fraction (WM451Lu) [%]: 184
Cn1nnc2c(C(N)=O)ncn2c1=O [temozolomide] + COc1cc(Nc2ncc(F)c(Nc3ccc4c(n3)NC(=O)C(C)(C)O4)n2)cc(OC)c1OC [Tamatinib] (first compound 2 µM, partner dose 0.4 µM)
  cleaved PARP positive nuclei fraction (WM115) [%]: 126; cleaved PARP positive nuclei fraction (WM1716) [%]: 180; cleaved PARP positive nuclei fraction (WM1745) [%]: 124; cleaved PARP positive nuclei fraction (WM3526) [%]: 39.2; cleaved PARP positive nuclei fraction (WM3619) [%]: 228; cleaved PARP positive nuclei fraction (WM451Lu) [%]: 101
